No constants are given. Whether binding was seen depends on the method and setting.
Biological target: RABV phosphoprotein residues 1-68 with C-terminal His6 (P68−His6) (rabies virus (CVS-11 strain)) (UniProt P22363)
Assay: SEC-MALLS; both purified

Sequences of proteins named here, by UniProt entry; tags and fusion partners are left off. Residues count along the entry.
UniProt P22363, residues 1-68: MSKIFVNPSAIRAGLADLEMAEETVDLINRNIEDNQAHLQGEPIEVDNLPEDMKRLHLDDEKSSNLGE

Which binding does the source give for “RABV phosphoprotein residues 1-68 with C-terminal His6 (P68−His6) (from UniProt P22363 1-68) (peptide)” here?
The binding was “no binding”.
